PubChem BioAssay AID1224829 | NIAID, 2016

Assay: 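Genes needed for LPS-driven NF-kappaB p65 nuclear entry in mouse macrophages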 (follow-up of hits)
Cells: mouse RAW264.7 G9 macrophage reporter cells
Knock-down reagent: single siRNA against mouse genes, 100 nM
Timing: 2 days of siRNA knock-down, then 40 min of LPS before fixing
Challenge: LPS (Salmonella minnesota R595) at 10 ng/ml
Detection: 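High-content images after 40 min LPS exposure; GFP-p65 nucleus to surrounding ring signal ratio, normalised to plate median and non-targeting control wells, expressed as z-score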
Direction: p65 translocation z-score: higher = more nuclear NF-kappaB p65 after LPS
Call rule: 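An siRNA is called active when the mean z-score of its two replicates is above 2 or below -2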
Meaning of the calls: active = changed p65 translocation (either direction); inactive = no clear change
The whole screen tested about 3,800 reagents; below is a part drawn at random. 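Calls cover raised and lowered translocation; gene median uses one vendor's three siRNAs; qiagen siRNAs acted more weakly than ambion siRNAs.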 Reagents against one gene are numbered here. Further read-outs or replicates are left out here.

Psmb6 #1, siRNA vendor or control pool ambion single siRNA
- p65 translocation z-score, replicate mean: 0.363
- p65 translocation z-score, replicate 1: 0.0539
- Call: inactive

Psmb6 #2, siRNA vendor or control pool ambion single siRNA
- p65 translocation z-score, replicate mean: -2.53
- p65 translocation z-score, replicate 1: -2.57
- Call: active

Psmb6 #3, siRNA vendor or control pool ambion single siRNA
- p65 translocation z-score, replicate mean: -0.236
- p65 translocation z-score, replicate 1: 0.131
- Call: inactive

Psmb6 #4, siRNA vendor or control pool qiagen single siRNA
- p65 translocation z-score, replicate mean: -3.06
- p65 translocation z-score, replicate 1: -2.29
- Call: active

Psmb6 #5, siRNA vendor or control pool qiagen single siRNA
- p65 translocation z-score, replicate mean: 0.214
- p65 translocation z-score, replicate 1: -0.34
- Call: inactive

Psmb6 #6, siRNA vendor or control pool qiagen single siRNA
- p65 translocation z-score, replicate mean: -1.57
- p65 translocation z-score, replicate 1: -0.555
- Call: inactive

Cryba4 #1, siRNA vendor or control pool ambion single siRNA
- p65 translocation z-score, replicate mean: 1.83
- p65 translocation z-score, replicate 1: 1.62
- Call: inactive

Cryba4 #2, siRNA vendor or control pool ambion single siRNA
- p65 translocation z-score, replicate mean: -3.39
- p65 translocation z-score, replicate 1: -3.39
- Call: active

Cryba4 #3, siRNA vendor or control pool ambion single siRNA
- p65 translocation z-score, replicate mean: -1.47
- p65 translocation z-score, replicate 1: -2.23
- Call: inactive

Cryba4 #4, siRNA vendor or control pool qiagen single siRNA
- p65 translocation z-score, replicate mean: 1.89
- p65 translocation z-score, replicate 1: 1.13
- Call: inactive

Cryba4 #5, siRNA vendor or control pool qiagen single siRNA
- p65 translocation z-score, replicate mean: -3.75
- p65 translocation z-score, replicate 1: -2.72
- Call: active

Cryba4 #6, siRNA vendor or control pool qiagen single siRNA
- p65 translocation z-score, replicate mean: -1.9
- p65 translocation z-score, replicate 1: -0.452
- Call: inactive

Prpf39 #1, siRNA vendor or control pool ambion single siRNA
- p65 translocation z-score, replicate mean: -1.86
- p65 translocation z-score, replicate 1: -1.25
- Call: inactive

Prpf39 #2, siRNA vendor or control pool ambion single siRNA
- p65 translocation z-score, replicate mean: -1.49
- p65 translocation z-score, replicate 1: -1.67
- Call: inactive

Prpf39 #3, siRNA vendor or control pool ambion single siRNA
- p65 translocation z-score, replicate mean: -1.32
- p65 translocation z-score, replicate 1: 1.02
- Call: inactive

Prpf39 #4, siRNA vendor or control pool qiagen single siRNA
- p65 translocation z-score, replicate mean: 3.53
- p65 translocation z-score, replicate 1: 2.91
- Call: active

Prpf39 #5, siRNA vendor or control pool qiagen single siRNA
- p65 translocation z-score, replicate mean: 1.9
- p65 translocation z-score, replicate 1: 0.796
- Call: inactive

Prpf39 #6, siRNA vendor or control pool qiagen single siRNA
- p65 translocation z-score, replicate mean: 0.226
- p65 translocation z-score, replicate 1: -0.207
- Call: inactive

Cnpy3 #1, siRNA vendor or control pool ambion single siRNA
- p65 translocation z-score, replicate mean: -4.96
- p65 translocation z-score, replicate 1: -6.24
- Call: active

Cnpy3 #2, siRNA vendor or control pool ambion single siRNA
- p65 translocation z-score, replicate mean: 0.546
- p65 translocation z-score, replicate 1: 0.0305
- Call: inactive

Cnpy3 #3, siRNA vendor or control pool ambion single siRNA
- p65 translocation z-score, replicate mean: -1.23
- p65 translocation z-score, replicate 1: -1.26
- Call: inactive

Cnpy3 #4, siRNA vendor or control pool qiagen single siRNA
- p65 translocation z-score, replicate mean: -0.486
- p65 translocation z-score, replicate 1: -1.24
- Call: inactive

Cnpy3 #5, siRNA vendor or control pool qiagen single siRNA
- p65 translocation z-score, replicate mean: -0.988
- p65 translocation z-score, replicate 1: -0.988
- Call: inactive

Cnpy3 #6, siRNA vendor or control pool qiagen single siRNA
- p65 translocation z-score, replicate mean: -2.43
- p65 translocation z-score, replicate 1: -3.66
- Call: active
